Results are given in words; binding and its absence hold for the method and conditions named. Some binding calls cover weakened binding; strength is not graded here.
T1: Vasa (Drosophila) (UniProt P09052)
T1 sequence: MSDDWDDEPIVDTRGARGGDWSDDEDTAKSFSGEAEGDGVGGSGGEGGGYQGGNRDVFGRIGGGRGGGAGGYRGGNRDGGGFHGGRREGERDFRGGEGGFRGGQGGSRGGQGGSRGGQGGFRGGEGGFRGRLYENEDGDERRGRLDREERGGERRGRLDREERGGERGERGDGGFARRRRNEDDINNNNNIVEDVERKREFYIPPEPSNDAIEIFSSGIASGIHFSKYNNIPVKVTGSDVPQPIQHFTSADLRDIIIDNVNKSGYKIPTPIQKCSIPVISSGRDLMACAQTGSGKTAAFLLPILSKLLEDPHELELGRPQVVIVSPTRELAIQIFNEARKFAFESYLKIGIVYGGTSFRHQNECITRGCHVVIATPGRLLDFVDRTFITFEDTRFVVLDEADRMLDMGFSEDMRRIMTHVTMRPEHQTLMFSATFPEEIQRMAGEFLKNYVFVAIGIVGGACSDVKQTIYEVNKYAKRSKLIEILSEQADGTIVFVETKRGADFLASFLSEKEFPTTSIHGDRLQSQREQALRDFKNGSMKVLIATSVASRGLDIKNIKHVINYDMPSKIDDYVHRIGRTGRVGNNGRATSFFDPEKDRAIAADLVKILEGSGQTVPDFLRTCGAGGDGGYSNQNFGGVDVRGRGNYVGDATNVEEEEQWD

T2: SoYb (Drosophila) (UniProt Q9VL52)
T2 sequence: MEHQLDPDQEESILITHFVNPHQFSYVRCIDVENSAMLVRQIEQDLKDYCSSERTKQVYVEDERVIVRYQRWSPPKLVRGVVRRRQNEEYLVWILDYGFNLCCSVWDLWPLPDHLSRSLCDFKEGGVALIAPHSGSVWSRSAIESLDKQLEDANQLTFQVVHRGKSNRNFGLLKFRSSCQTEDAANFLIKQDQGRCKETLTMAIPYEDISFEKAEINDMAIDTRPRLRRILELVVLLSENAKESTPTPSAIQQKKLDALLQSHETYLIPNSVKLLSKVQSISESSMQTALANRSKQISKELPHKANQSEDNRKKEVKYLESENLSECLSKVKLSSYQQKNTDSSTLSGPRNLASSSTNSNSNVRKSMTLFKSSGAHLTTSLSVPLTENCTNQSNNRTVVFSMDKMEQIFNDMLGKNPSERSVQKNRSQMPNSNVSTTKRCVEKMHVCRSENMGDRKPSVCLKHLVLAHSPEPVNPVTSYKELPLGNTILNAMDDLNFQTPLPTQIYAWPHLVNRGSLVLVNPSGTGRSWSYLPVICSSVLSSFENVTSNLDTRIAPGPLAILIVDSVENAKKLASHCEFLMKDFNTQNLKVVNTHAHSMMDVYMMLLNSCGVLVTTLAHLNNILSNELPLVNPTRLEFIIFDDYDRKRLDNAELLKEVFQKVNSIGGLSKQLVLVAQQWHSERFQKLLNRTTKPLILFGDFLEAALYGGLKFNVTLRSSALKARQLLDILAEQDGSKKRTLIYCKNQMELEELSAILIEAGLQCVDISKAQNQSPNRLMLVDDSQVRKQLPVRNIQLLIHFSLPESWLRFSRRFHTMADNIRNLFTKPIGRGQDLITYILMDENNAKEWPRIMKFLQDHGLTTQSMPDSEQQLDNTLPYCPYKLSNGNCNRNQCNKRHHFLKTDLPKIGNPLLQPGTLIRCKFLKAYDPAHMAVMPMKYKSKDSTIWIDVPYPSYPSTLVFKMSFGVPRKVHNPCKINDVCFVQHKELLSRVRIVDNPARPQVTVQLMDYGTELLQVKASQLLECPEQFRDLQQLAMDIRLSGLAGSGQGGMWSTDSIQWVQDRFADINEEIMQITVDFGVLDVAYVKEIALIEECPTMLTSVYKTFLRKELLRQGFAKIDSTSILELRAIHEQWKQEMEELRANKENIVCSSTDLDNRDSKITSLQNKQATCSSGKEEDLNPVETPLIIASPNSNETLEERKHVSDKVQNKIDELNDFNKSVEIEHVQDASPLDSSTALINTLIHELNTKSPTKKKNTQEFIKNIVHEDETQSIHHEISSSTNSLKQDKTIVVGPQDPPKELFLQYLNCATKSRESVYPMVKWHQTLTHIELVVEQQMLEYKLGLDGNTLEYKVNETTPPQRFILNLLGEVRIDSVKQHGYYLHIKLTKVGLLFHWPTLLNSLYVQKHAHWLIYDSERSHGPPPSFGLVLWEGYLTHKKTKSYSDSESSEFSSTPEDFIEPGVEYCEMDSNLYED


Experiments:
Vasa (Drosophila) = target: T1, Vasa (Drosophila); assay: ReLo
SoYb (Drosophila) = target: T2, SoYb (Drosophila); assay: ReLo

binding (Vasa (Drosophila)) | binding (SoYb (Drosophila)) | Binder
binds weakly | – | Krimper (protein, UniProt A1ZAC4 1-746) MNLEDISMIMKLFDSNMHKLQGNLRSYQTEMHQIHKELTEKLSHADLLYRSLIPLHDHLVASLSEVNAHVMKLNVQLHINRQSVRLGDYEYYEKSIDNPYSSIRSGLQAIEKPGCAEAICQSSKPAFVECLPSSTSEEVPVVAVQEASSTNQLDAISVVNENLSEERDATPQPLAVSKNMEETMPSNPFHEQLEGSLEEIPVGSKIVVETEKANNPVRSEASAPATSDNQSLLAAKQGTQTIGTGICNKISKSTINMPNNWQLENPTEVTAASIEKVNKLPKSPRNRFLLPPKGGTETTRRDIYNQILKDMAAFPENTIVTAVLASVDVTDNCAYVAKWDESSDRIKKVLQRQLPLQELDQLPDYGDIFAVLDSINNIITRITINSSSAGGGYDAYLIDFGEHIHFDGNETIFKLPDDIKRLPAQAIRCDLINCDIANMHCFVNTYIKIRVHENNNSTLVAEPVIDRLSRPTKTNTTKYPAGITEDDMAMLNEIDESTSDPLKAVLGFRPKDEQRICRHYDPKLNGCFKGNNCRFAHEPFAPNGATKDVELARALPETIFDTTVHFEIGSIVGILITFINGPTEVYGQFLDGSPPLVWDKKDVPENKRTFKSKPRLLDIVLALYSDGCFYRAQIIDEFPSEYMIFYVDYGNTEFVPLSCLAPCENVDSFKPHRVFSFHIEGIVRSKNLTHQKTIECIEYLKSKLLNTEMNVHLVQRLPDGFLIRFLDDWKYIPEQLLQRNYAQVSQ
– | no binding | BoYb (protein, UniProt Q9VNP5 1-1059) MIKISDEKTWQSSRDSVYEVGDSYSGQNANRPLVATNCSEYAVAHANCQLRPVRRFAEVSLLPDILETMRNLGLNRLLRLQSYTWPHLAGGSGHGAMIVGSPASGRTFAYIPPVCHAVSRALMDFTGQCEDVEHDISQPDRYGPIALILVPDLRRVHQVSAMCLALLRKAHKNDSVTLALNVSSTKSSQFFLKLLNGVGCLVATPAQLVWFWQEAPGLMRFPCLQFLVYDDVDLMSREQLQDVQQVLQEILPLSHSPQVVMVSKSYCHTLMSKLRAVNDKPALVFGDILEAALYGGTRIRISIMRSEAKANAVVQMLQQCSPEEFRTVIFCSDDGDMQCLVAALEVQHYSCLPYYQTADLEVRQQVHSWQARSNGVILLCTDNCPELDIRDAHTIIHHSMSHSWSKFKLRHLKISDNLCNMVKPTASIVKKPLYSLVLLDDNNHRQLPRLVDFLQLHQKVDHRLVEVAKRIRQELGKARNDQHQLCDQILVLGKCYDPVCESRHRLSHIDRRPDYLPASGDVKVQLVKVYSPTHFCVRLLEHLPPKGTWRMMEYSAVQEFRMQLTQIKEPRRYWPPVAGAICMYHTTFTKERVRVLKVAAIKNTNIVQSDLTVKLQALDVDTRIFSTNCGKLFECPEALQQEAPLACDLRLPGWVPYFGERSWTEENIRNVNLILTQLPKDHFLQAKILFVAAGTLFVQDLVAIMYADQFKAHVRHLSLARRLVEATLVKRSENAAEMIREFFAEVIIEDDIDENVQDSKEKANSKPHEKMKGKMTDQPAKLQSQPPLSGRCLRLANMAHESVKENQLHQELQERRYETPEIPHQSNESDIPQSNEDRFSQLYECIMNCASLQLEDESKPAKHPDHVLSESVEFHKIMTNEDATPDHTQEKTALLLLPNNVARPSVTYYQTMTTLEFQVFLPEDDHDYKALLLGAQLFFRAISKSSDLILQFIMTLRFPYSSMSHNIRGRTVYISVKKLLALIDPLAFREYRFLKPNHDLFDKVDKQLQETQNRLVRFLEDMNYVKRNFEGQEKRETSEDEEVNVEGIERPDCHKIWDL

From doi:10.1101/2024.05.31.596839
